Test results published in publication PMC9760428.
These are yes or no findings as the source states them, for the method shown. Binding seen in cells or lysates may run through a third protein. Some results given as binding are weak or reduced against the parent protein; the word gives no strength.

By UniProt entry, the sequences of proteins in these tests, tags left out.
UniProt Q16665: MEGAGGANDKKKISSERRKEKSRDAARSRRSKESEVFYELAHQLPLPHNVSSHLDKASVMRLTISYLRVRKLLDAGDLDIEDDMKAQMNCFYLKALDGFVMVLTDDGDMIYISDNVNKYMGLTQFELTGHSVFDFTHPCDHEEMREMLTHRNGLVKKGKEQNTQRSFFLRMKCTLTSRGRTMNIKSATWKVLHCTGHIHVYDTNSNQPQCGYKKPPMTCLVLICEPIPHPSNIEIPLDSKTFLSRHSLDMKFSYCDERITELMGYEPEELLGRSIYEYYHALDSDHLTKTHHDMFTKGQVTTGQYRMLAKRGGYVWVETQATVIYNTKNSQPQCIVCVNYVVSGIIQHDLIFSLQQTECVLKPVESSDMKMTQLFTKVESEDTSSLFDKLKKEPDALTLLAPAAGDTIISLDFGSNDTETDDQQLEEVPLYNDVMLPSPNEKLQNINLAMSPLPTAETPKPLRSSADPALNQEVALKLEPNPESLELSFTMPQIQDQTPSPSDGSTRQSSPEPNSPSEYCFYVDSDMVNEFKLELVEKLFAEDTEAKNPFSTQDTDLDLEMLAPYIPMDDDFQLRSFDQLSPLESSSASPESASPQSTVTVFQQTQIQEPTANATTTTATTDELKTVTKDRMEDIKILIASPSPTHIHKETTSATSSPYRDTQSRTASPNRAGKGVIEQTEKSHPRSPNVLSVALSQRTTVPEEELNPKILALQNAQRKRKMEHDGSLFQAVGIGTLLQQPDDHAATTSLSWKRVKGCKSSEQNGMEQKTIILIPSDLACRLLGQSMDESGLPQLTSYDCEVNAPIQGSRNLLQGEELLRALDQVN
UniProt P46937: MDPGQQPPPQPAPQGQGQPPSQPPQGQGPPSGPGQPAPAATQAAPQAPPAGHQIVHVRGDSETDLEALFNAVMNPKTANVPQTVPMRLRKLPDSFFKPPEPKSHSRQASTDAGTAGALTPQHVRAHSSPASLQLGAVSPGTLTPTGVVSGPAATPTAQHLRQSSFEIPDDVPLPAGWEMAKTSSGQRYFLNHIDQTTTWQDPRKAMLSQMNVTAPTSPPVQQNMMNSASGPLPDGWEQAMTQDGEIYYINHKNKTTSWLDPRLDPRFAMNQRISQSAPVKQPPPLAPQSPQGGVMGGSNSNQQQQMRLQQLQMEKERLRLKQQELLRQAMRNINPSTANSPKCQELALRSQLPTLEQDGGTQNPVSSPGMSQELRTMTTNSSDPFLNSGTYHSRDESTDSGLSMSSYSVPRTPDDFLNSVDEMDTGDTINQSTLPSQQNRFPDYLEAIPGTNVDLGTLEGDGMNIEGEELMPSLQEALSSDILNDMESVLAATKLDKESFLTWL

Molecular target: hypoxia-inducible factor 1α (human (endogenous in BCPAP and TPC-1 cells)) (UniProt Q16665)
Assay: co-IP; endogenous proteins in lysate of PTC cells after hypoxia (1% O2) for 24 h, with 10 μM MG132; HIF-1α, YAP or IgG antibody overnight at 4 °C, protein A/G-agarose beads, western blotting

yes-associated protein (from UniProt P46937 1-504)
binding: binds
